Assay results: PMC8439062

Molecular target: HA-MG53(FL), full-length human MG53 (TRIM72) (human)
Test: co-IP; HEK293 cells transfected with HA-MG53 (full length or deletion mutants) and Myc-DDK-tagged G3BP2 for 24 hr, MG132 (10 uM) for 16 hr; RIPA buffer lysate; IP with anti-HA magnetic beads, blot with anti-HA and anti-G3BP2

B1: Myc-DDK-tagged G3BP2 (Ras GTPase-activating protein-binding protein 2) (protein, UniProt Q9UN86 1-482)
chain: MVMEKPSPLLVGREFVRQYYTLLNKAPEYLHRFYGRNSSYVHGGVDASGKPQEAVYGQNDIHHKVLSLNFSECHTKIRHVDAHATLSDGVVVQVMGLLSNSGQPERKFMQTFVLAPEGSVPNKFYVHNDMFRYEDEVFGDSEPELDEESEDEVEEEQEERQPSPEPVQENANSGYYEAHPVTNGIEEPLEESSHEPEPEPESETKTEELKPQVEEKNLEELEEKSTTPPPAEPVSLPQEPPKAFSWASVTSKNLPPSGTVSSSGIPPHVKAPVSQPRVEAKPEVQSQPPRVREQRPRERPGFPPRGPRPGRGDMEQNDSDNRRIIRYPDSHQLFVGNLPHDIDENELKEFFMSFGNVVELRINTKGVGGKLPNFGFVVFDDSEPVQRILIAKPIMFRGEVRLNVEEKKTRAARERETRGGGDDRRDIRRNDRGPGGPRGIVGGGMMRDRDGRGPPPRGGMAQKLGSGRGTGQMEGRFTGQRR
In the case of B1, the binding is reported as “binds”.

No constants are given. Whether binding was seen depends on the method and setting. Binding seen in cells or lysates may run through a third protein. Binding can be weak; no strength is given. Sequences can lack the tags named with a protein.
